Results on 84 variants are retold here after the RNAGym collection of RNA variant scans (doi:10.1126/science.aae0568).

B1: tRNA (parent)
chain: GUUCCGUUGGCGUAAUGGUAACGCGUCUCCCUCCUAAGGAGAAGACUGCGGGUUCGAGUCCCGUACGGAACG

Variants at the background level are over-represented here.

This data set covers variants of B1. Nature of the data set: yeast fitness relative to wild type (ratio to wild type); higher = fitter; tRNA-Arg(CCU), competitive growth, 37 C, YPD. The method, boiled down: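 Genotype frequency changes were the basis for Darwinian fitness relative to wild type. The frequencies came from 100-nucleotide paired-end sequencing of gene amplicons from the start population and each end population of pooled yeast strains with tRNA-Arg(CCU) gene variants at the native locus. Competition ran in YPD at 37°C for 24 hours in six replicates, genotypes needed ≥ 100 starting reads, and estimates < 0.5 were set to 0.5.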
With C34U C46A C55U, the yeast fitness was no more than 0.5.
Under C4G A20C C22U stands no more than 0.5; under A14G G25A G38C, no more than 0.5.
Under G12A U13C C22A U26C stands no more than 0.5; under U7G C11U G12C C33U C66A, no more than 0.5; under C29U A43G C49A G63A, no more than 0.5.
For U7A U13G C66A, the yeast fitness is no more than 0.5.
Regarding A36U C55U G56A, the yeast fitness came to 0.864.
Under C31U A37C A45C G56C stands no more than 0.5.
With C29U A37C A40G C62G G63A C66G A69G, the yeast fitness was no more than 0.5.
As to A21U C29G C49G G56A A70U, the yeast fitness is no more than 0.5.
The value for U19C C22G was 0.978; that for C5G U7A G44C U64A was no more than 0.5.
Under C30U A57C C66A stands no more than 0.5; under G52A A57G C60U, no more than 0.5.
The value for U8G G41A A42C G50C A70G was no more than 0.5.
Regarding A42C A45G G51A, the yeast fitness was no more than 0.5.
On to G12C U35G A37G A65C, for which the yeast fitness is no more than 0.5.
Regarding G48A A57C A70U, the yeast fitness is no more than 0.5.
For the variant A36U G38A C61U A70U, the yeast fitness is no more than 0.5.
With C11G C61A G67A, the yeast fitness is no more than 0.5.
For A40C A42U C66U, the yeast fitness was no more than 0.5.
With C11G U54G, the yeast fitness was no more than 0.5.
As for A15G A21U C24U G38A, the yeast fitness was no more than 0.5.
The value for U2A G9A U13A C24A A45C C55U was no more than 0.5; that for C5U C27G C46U was 0.753.
The value for C55G A57G G63C was no more than 0.5; that for G12A C22U C31G G48C U64A C66U G68C was no more than 0.5; that for A21G C62U G63C A70C was no more than 0.5.
Under A37C U47A G58A stands no more than 0.5; under G6C C34A A37G G41A, no more than 0.5; under C30G C46G G52C G67A G68C, no more than 0.5.
For A21U C22G C33U G50A, the yeast fitness was no more than 0.5.
Turning to C24G A40G C66U, the yeast fitness amounted to 0.515.
Under U3C C34U G41A stands no more than 0.5; under C4A U32C A40U C62G C66G, no more than 0.5; under C4G G9C C27U C29U U59C C62A, no more than 0.5.
The value for G10A A20C G38A G41A U47A was no more than 0.5; that for G18C A43G C60U was no more than 0.5; that for G6C U7C A45C A65C was no more than 0.5.
The value for A14C C30U G41C G50A A69U was no more than 0.5; that for C11A G25C A45U C66U was no more than 0.5; that for A15C G18C A42C C55U was no more than 0.5.
For C5U G25C A36C A40U, the yeast fitness is no more than 0.5.
The value for C29U C30U A65G was 0.704.
C4A C5U C27U A37G: the yeast fitness was no more than 0.5.
Under A20C C33G A40C A45U stands no more than 0.5; under A14U G52C G67A, no more than 0.5.
Under G6C C30G C66U stands no more than 0.5.
Regarding G18C C29G C34U A45C, the yeast fitness is no more than 0.5.
As to G56U U59A C66A, the yeast fitness was no more than 0.5.
With C4G C24U U35C C66U, the yeast fitness was 0.559.
U3A A21G U35A A40U U54C: the yeast fitness was no more than 0.5.
Under A14U C24G G41A G44A C61A G67A stands no more than 0.5; under C27A C31A G52A G58C A70G, no more than 0.5; under G10A C11U A15G C30U C60G, no more than 0.5.
Under G6C C22A C31G A65C stands no more than 0.5; under C5G G17C G23C A70C, no more than 0.5.
With A14C C27G C33A A45U G63C, the yeast fitness was no more than 0.5.
Regarding C24G G25A C60G, the yeast fitness was no more than 0.5.
C33U A36C A40G: the yeast fitness was no more than 0.5.
Under A20G G39C A45C C49G stands no more than 0.5; under A40U G67U, 0.797; under U35C A37C G68C A70C, 0.913.
In the case of U3C C30U G44A C61U, the yeast fitness was no more than 0.5.
For U19A C22U C30A C31U A36G G50A A65G C66U, the yeast fitness was no more than 0.5.
Under U3G C24A C30U stands no more than 0.5.
The value for U28G A36U A43U was no more than 0.5; that for A15C A36C G38C G52A G58A was no more than 0.5; that for C30U G48C G67C was no more than 0.5.
As to C4A G39C A45C, the yeast fitness was no more than 0.5.
With U28A G51C A57C A69U, the yeast fitness was no more than 0.5.
Regarding G9A A40C G68A, the yeast fitness was no more than 0.5.
Under G58A G67C stands 0.988; under C22A A65G C66G G68C, no more than 0.5.
As for G50A U54G, the yeast fitness stood at 0.559.
Under C4A A20U A21G C27G stands no more than 0.5.
Turning to C4G U7C C33G G52A, the yeast fitness was 0.652.
The value for A14G G23U G58A was no more than 0.5; that for G25C C29A U32A A65U was no more than 0.5; that for C11G C30U A37C C46U A57U A69U was no more than 0.5.
Turning to C11G G23C A37G A57C, the yeast fitness is 0.979.
Under G10A C29G C66U stands no more than 0.5; under G10A A21U C31A G39C C62G G68A, no more than 0.5.
